Data from PubChem BioAssay AID2718 (Broad Institute, 2010).
Hit rate of the full screen: of about 320,000 compounds, about 480 (0.15%) were called active. The shares of active, inactive and inconclusive entries below differ from those in the screen. Cut-off read from the data, not from the text of the source: active = inhibition above about 26% (passing the limit was not always enough); inconclusive = no clear call, values can overlap the other calls.

By UniProt entry, the sequences of proteins in these tests, tags left out.
UniProt O15379, whole entry, looked up: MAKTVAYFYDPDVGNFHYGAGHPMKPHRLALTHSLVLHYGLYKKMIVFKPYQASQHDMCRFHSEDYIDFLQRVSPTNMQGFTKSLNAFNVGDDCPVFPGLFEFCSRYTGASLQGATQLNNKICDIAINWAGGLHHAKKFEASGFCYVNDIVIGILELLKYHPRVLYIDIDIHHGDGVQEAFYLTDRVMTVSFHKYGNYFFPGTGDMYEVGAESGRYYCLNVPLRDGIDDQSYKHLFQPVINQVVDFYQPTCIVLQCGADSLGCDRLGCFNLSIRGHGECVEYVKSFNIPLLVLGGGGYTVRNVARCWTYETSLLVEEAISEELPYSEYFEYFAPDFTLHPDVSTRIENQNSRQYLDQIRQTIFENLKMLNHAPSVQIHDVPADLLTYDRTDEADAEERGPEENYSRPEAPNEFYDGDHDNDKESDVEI

molecular target: Histone deacetylase 3 (Homo sapiens) (UniProt O15379); assay: HDAC3 deacetylase inhibitors, primary screen, biochemical, fluorescence, cell-free homogeneous (AID 2718); details: recombinant HDAC3, fluorogenic peptide/trypsin coupled, at 8.3 µM, stronger effect = higher value

Row | SMILES | inhibition
1 | CC(=O)c1ccc(-c2ccc(C(=O)N(C)c3c(N)n(Cc4ccccc4)c(=O)[nH]c3=O)o2)cc1 | inconclusive: 17.4%
2 | Cc1nn(CCc2n[nH]c(=S)n2-c2cccc(Cl)c2)c(C)c1[N+](=O)[O-] | inactive: 0.173%
3 | Fc1ccc(SCCc2ccncc2)cc1 | inconclusive: 18.2%
4 | COc1ccc(N=c2ssnc2Cl)cc1 | inconclusive: 21.9%
5 | COC(=O)c1cccc(-n2sc3ccccc3c2=O)c1 | active: 66.6%
6 | O=C(Cn1nnc(-c2ccc(F)cc2)n1)Nc1ccc2c(c1)OCCO2 | inconclusive: 23.2%
7 | Cc1ccccc1-c1noc(-c2cccs2)n1 | inconclusive: 24.3%
8 | O=C(CN1CCOCC1)NN=C(c1ccccc1)c1ccccc1 | inactive: 1.09%
9 | Cc1cc(NC(=O)COC(=O)CCS(=O)(=O)c2cc(Cl)ccc2Cl)no1 | inconclusive: 21.3%
10 | Cc1ccc(C)c(-c2ccc(=O)n(Cc3ccc(F)cc3Cl)n2)c1 | inconclusive: 28.4%
11 | Cc1onc(-c2ccccc2)c1C(=O)OCC(=O)Nc1cccc(Cl)c1 | inconclusive: 5.74%
12 | Cn1c(NNC(=O)CCC2CCCCC2)cc(=O)n(C)c1=O | inconclusive: 19.1%
13 | O=C(CNC(=O)c1ccccc1)NCC(=O)OCc1ccccc1Cl | inactive: 9.86%
14 | COC(=O)c1ccc2c(=O)n(Cc3ccco3)c(SCC(=O)Nc3ccccc3Cl)nc2c1 | inactive: 4.45%
15 | C=CCN1C(=O)C(Cc2ccc(OC)cc2)S/C1=N/N=C/c1ccco1 (stereo not given) | inconclusive: 26.7%
16 | Cc1ccccc1/C=C1\Oc2ccccc2C1=O | inactive: 14.3%
17 | COc1ccc(C(=O)n2cnc3ccccc32)cc1 | active: 33.2%
18 | COCCCn1c(SCc2cccc(C(F)(F)F)c2)nc2cc(OC)c(OC)cc2c1=N | inconclusive: 32.9%
19 | Cc1[nH]n(-c2nc(-c3ccccc3F)cc(=O)[nH]2)c(=O)c1CCO | inconclusive: 16.7%
20 | O=C(C1CCCO1)N1CCN(C(=S)Nc2ccccc2C(F)(F)F)CC1 (stereo not given) | inactive: 0.889%
21 | COC(=O)C1=C(C)N(Cc2ccc(C)cc2)C(=O)/C1=C\c1ccc(O)c(OC)c1 | inconclusive: 25.8%
22 | CC(C)(C)c1ccc(OCCC(=O)OCC(=O)NCc2ccccc2)cc1 | inconclusive: 25.5%
23 | COc1cccc(C2CCCCN(C)C2=O)c1 (stereo not given) | inconclusive: 16%

Row | SMILES | inhibition
24 | N#Cc1cccc(-n2nnnc2-c2ccc3c(c2)OCO3)c1 | inactive: -2.33%
25 | CCCCNCC(O)(c1ccc(Cl)cc1)c1ccc(Cl)cc1 | inconclusive: 13%
26 | COc1ccc(/C=N/NC(=O)CNC(=O)c2ccc3c(c2)OCCO3)cc1OC | inactive: 4.93%
27 | CCCC1(c2ccccc2)NC(=O)N(C/C=C/Cl)C1=O (stereo not given) | inconclusive: 24.3%
28 | O=C(Nc1ccc(S(=O)(=O)Nc2cnc3ccccc3n2)cc1)c1ccc(Cl)cc1Cl | inactive: -7.16%
29 | O=C(O)c1ccc(NC(=S)NC(=O)c2cccc(COc3ccccc3)c2)cc1 | inactive: 2.8%
30 | CCOC(=O)c1c(-c2ccccc2)oc2ccc(O)cc12 | inactive: -7.01%
31 | Cc1ccccc1-c1nc2c3ccccc3nc(=S)n2[nH]1 | inconclusive: 15.2%
32 | Cc1ccc(O)c(NC(=O)c2cccc(NC(=O)c3ccco3)c2)c1 | inconclusive: 30.9%
33 | N=c1c2c(ncn1Cc1ccco1)Oc1cc(O)ccc1C2c1ccccc1 (stereo not given) | inactive: 1.2%
34 | CN(CC(=O)Nc1ccccc1Cl)C(=O)c1cc(C2CC2)nn1-c1ccccc1 | inconclusive: 13.9%
35 | Cc1ccc(-c2nc(CS(=O)CC(=O)NCCN3CCCC3)c(C)o2)cc1 (stereo not given) | inactive: 1.53%
36 | NC1=C(c2ccc([N+](=O)[O-])cc2)C(=O)CO1 | inconclusive: 20.7%
37 | CCN(c1ccc(NS(=O)(=O)c2cc(Cl)ccc2Cl)cc1)C(C)C | inactive: 6.37%
38 | Cn1c(SCC(=O)Nc2ccc3c(c2)OCO3)nnc1C(F)(F)F | inconclusive: 17.4%
39 | CCCCOC(=O)CNc1nnc(SCC(=O)OCC)[nH]c1=O | inconclusive: 24.6%
40 | C[C@H](NC(=O)c1nc[nH]c1C(=O)N[C@@H](Cc1ccccc1)C(=O)OC(C)(C)C)C(=O)OCc1ccccc1 | inconclusive: 17.3%
41 | Cc1[nH]n(-c2ccccc2)c(=S)c1C=Nc1cccc([N+](=O)[O-])c1 | active: 55%
42 | C=CCNC(=O)c1onc(CCl)c1C(=O)OC | inconclusive: 11.5%
43 | Cc1cccc(-n2nnnc2SCC(=O)c2cc(C)n(Cc3ccco3)c2C)c1 | inactive: 1.83%
44 | Nc1nnc(SCc2cn3cc(Cl)ccc3n2)s1 | inactive: 3.31%
45 | C=CCC[C@@H](Cc1ccc(F)cc1)C(=O)OC[C@@H](NC(=O)[C@@H](CC=C)CC(=O)N[C@H](CO)Cc1ccccc1)C(C)(C)C | inconclusive: 22.7%
46 | CCOc1[nH]n(-c2ccccc2)c(=O)c1C=NCC(=O)OC | inactive: -11.9%

Row | SMILES | inhibition
47 | C=CCC[C@H](Cc1ccc(F)cc1)C(=O)OC[C@@H](NC(=O)[C@@H](CC=C)CC(=O)N[C@@H](CO)Cc1ccccc1)C(C)(C)C | active: 31.6%
48 | COc1cc(C(=O)NCc2nnc(SCC(=O)NC3CCCCC3)o2)cc(OC)c1OC | inconclusive: 14.6%
49 | CCOC(=O)c1cccc(NC(=O)CCc2nnc3ccc(N4CCCCC4)nn23)c1 | inconclusive: 12.9%
50 | O=C(Cn1c(NCCO)nc2ccccc21)NCCc1ccccc1 | inactive: 2.58%
51 | CN(CC(=O)Nc1ccccc1Br)C(=O)c1ccc(COc2ccccc2)cc1 | inactive: -5.93%
52 | Cc1cc(C)nc(NN2C(=O)/C(=C/c3ccccc3)SC2=S)n1 | inconclusive: 12.1%
53 | O=C(C1CCCCC1)N1CCC(c2nc3c(nnn3Cc3c(F)cccc3Cl)c(=O)[nH]2)CC1 | inconclusive: 32.7%
54 | CC(C)(C)CC(C)(C)c1ccc(OCCOCC[N+](C)(C)Cc2ccccc2)cc1 | active: 39.9%
55 | C=CCC[C@H](Cc1ccc(F)cc1)C(=O)OC[C@H](C)NC(=O)[C@H](CC=C)CC(=O)N(CCO)Cc1ccccc1 | active: 30.2%
56 | COc1cc(/C=C/C(=O)c2ccc3c(c2)OCO3)cc(Cl)c1O | inactive: 14.9%
57 | Cc1ccc(NC(=O)Cn2nc([N+](=O)[O-])c(Br)c2C)cc1C | inconclusive: 23.2%
58 | Cc1nn(Cc2ccc(F)cc2)c2sc(C(=O)Nc3nccs3)cc12 | inconclusive: 20%
59 | COc1ccc(CCNC(=O)CSc2nnc(-c3ccccc3)c3ccccc23)cc1OC | inactive: 2.24%
60 | CCC(Sc1ccc(Cl)cc1)C(=O)Nc1nnc(-c2cccc([N+](=O)[O-])c2)s1 (stereo not given) | inconclusive: 21%
61 | O=C(N/N=C/c1coc2ccccc2c1=O)c1cc(Br)c(O)c(Br)c1 | active: 46.2%
62 | O=C(c1ccccc1)C1CCN(C(=O)c2cccs2)CC1 | inconclusive: 9.19%
63 | CC1(C)Cc2ccccc2C(NNC(=O)c2ccc(Br)o2)=N1 | inactive: 0.779%
64 | O=C(N/N=C/c1coc2ccc(Cl)cc2c1=O)c1ccc(O)cc1 | active: 96.9%
65 | N#Cc1c2c(c(NCCN3CCOCC3)n3c1nc1ccccc13)CCCC2 | inactive: -7.85%
66 | CN(C)CCCNC1=CC(=O)CC(c2ccccc2)C1 (stereo not given) | inactive: 5.24%
67 | COc1ccccc1C(=O)NC1CCN(C(=O)Nc2ccc(C)cc2)CC1 | inactive: -2.64%
68 | CCN1C(=O)c2cccc3c(S(=O)(=O)Nc4ccccn4)ccc1c23 | inactive: 2.52%
69 | CCOC(=O)Cc1nnc2c(Nc3ccccc3F)nc3nonc3n12 | inconclusive: 14.9%

Row | SMILES | inhibition
70 | NC(=O)SCC(=O)Nc1cccc(Cl)c1 | active: 39.1%
71 | CCc1ccc(S(=O)(=O)NCc2cn3cccc(C)c3n2)s1 | inactive: -9.14%
72 | CCOc1ccc(/C=N/NC(=O)Cc2csc(Nc3cccc(C(F)(F)F)c3)n2)cc1 | inconclusive: 26.4%
73 | COc1cc(C(=O)NCCNC(=O)C2CCCNC2=O)cc(OC)c1OC (stereo not given) | inconclusive: 11.3%
74 | Cc1ccc(NC(=O)CC2SC(=O)N(c3ccccc3)C2=O)cc1 (stereo not given) | inconclusive: 32.5%
75 | CCCCCCCC(=O)NC(Nc1ccc(S(N)(=O)=O)cc1)C(Cl)(Cl)Cl (stereo not given) | inconclusive: 18.2%
76 | Cc1ccc(-n2c(N)cc(=O)nc2SCC(=O)N2CCN(c3ccccc3)CC2)cc1 | inactive: 5.17%
77 | CN1CC(=O)N(CC(=O)Nc2cc(Cl)cc(Cl)c2)C1=O | inactive: -4.2%
78 | O=C(NC(=S)Nc1ncccn1)c1ccccc1Cl | inconclusive: 13.2%
79 | COc1ccc(NC(=O)CSc2nnc(Cc3ccccc3)c(=O)n2N)cc1 | inconclusive: 16.7%
80 | c1ccc2c(c1)nc1n2CC2CON(C3CCCCC3)C12 (stereo not given) | inconclusive: 18.6%
81 | CN(C)/C=N/c1sccc1C(N)=O | inactive: 1.7%
82 | CCOC(=O)NC(=O)C(=CNc1ccccc1OC)C(=O)NC(=O)OCC | inconclusive: 19.7%
83 | O=C(Nc1ccccc1)c1ccc(Br)c(S(=O)(=O)Nc2ccccn2)c1 | inconclusive: 21.6%
84 | Cc1ccc(C(=O)Oc2ccc(Br)cc2C(=S)N2CCOCC2)cc1 | inactive: 10.5%
85 | O=C(CN1CCN(c2ccccn2)CC1)Nc1ccc(F)cc1 | inactive: 0.237%
86 | COc1ccccc1N1CCN(C(=O)c2cc3c(-c4ccc(Cl)cc4)nn(C)c3s2)CC1 | inconclusive: 14.8%
87 | CSc1ncccc1C(=O)OCC(=O)NCCc1ccccc1 | inconclusive: 17%
88 | CCC(=O)Oc1ccc(C/C(=N\O)c2ccc(O)cc2O)o1 | inconclusive: 29.9%
89 | CCOc1ccc(NC(=O)N(c2ccccc2)c2ccccc2)cc1 | inactive: 0.325%
90 | S=c1[nH]nc(Cn2c(-c3ccccn3)nc3ccccc32)n1-c1ccc2c(c1)OCCO2 | inconclusive: 15.5%
